Assay results: PMC10287905
For at least one entry, the source does not settle the construct or the ends of the probe. At least one result comes from cells or an extract, where the contact may be indirect. For part of these data: A weaker result is weaker than the reference pair of the same experiment.

The chains behind the UniProt entries cited, without tags or fusion partners.
UniProt P27694, whole entry: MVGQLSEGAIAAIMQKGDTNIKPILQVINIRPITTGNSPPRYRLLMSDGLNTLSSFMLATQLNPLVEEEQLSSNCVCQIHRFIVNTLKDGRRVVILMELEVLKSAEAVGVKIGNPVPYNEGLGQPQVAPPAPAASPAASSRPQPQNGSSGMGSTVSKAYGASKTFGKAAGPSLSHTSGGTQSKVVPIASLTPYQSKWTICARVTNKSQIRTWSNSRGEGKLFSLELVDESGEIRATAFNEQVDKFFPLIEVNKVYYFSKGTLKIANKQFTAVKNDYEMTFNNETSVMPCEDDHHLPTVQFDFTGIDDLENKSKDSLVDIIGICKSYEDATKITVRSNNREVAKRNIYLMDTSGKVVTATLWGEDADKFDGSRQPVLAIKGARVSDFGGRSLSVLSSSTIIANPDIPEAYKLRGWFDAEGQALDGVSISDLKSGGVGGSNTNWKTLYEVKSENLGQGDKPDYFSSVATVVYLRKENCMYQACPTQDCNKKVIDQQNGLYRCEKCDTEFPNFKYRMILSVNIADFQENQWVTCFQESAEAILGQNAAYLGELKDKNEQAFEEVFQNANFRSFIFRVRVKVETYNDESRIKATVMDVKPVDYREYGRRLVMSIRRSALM
UniProt P27694, whole entry K259Q/K458Q/K489Q: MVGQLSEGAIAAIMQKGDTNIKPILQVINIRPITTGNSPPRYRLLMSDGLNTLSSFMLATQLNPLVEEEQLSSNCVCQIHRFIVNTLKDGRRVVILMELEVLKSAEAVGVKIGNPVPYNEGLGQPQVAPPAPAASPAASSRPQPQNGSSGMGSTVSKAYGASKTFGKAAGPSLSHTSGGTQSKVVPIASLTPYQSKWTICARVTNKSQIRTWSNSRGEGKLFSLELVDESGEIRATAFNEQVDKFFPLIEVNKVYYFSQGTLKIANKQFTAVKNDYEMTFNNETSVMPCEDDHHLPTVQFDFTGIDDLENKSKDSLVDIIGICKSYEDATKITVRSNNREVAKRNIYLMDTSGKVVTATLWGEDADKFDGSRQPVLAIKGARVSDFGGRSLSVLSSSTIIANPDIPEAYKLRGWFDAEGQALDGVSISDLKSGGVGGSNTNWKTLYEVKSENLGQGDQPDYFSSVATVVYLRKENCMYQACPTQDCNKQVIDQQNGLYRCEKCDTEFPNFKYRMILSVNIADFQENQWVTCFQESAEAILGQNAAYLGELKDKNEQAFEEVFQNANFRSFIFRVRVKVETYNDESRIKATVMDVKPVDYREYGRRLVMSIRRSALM
UniProt P27694, whole entry K259R/K458R/K489R: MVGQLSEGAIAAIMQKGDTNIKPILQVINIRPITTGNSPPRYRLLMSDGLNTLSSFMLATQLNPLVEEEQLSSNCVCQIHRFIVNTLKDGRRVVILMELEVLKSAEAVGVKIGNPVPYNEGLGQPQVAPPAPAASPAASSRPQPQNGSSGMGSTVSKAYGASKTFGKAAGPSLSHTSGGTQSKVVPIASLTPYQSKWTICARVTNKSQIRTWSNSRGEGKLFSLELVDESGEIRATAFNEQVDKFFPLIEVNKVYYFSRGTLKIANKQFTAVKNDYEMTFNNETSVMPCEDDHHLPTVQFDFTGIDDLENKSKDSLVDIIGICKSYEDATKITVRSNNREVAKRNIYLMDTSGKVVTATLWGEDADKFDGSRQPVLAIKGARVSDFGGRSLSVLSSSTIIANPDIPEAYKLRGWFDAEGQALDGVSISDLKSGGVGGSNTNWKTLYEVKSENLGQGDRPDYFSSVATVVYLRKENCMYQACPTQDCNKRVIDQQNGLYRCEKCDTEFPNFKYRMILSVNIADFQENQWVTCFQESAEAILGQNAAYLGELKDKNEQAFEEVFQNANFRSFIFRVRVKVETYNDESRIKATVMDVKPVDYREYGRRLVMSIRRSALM
UniProt P22336, whole entry K259R/K427R/K463R/K494R: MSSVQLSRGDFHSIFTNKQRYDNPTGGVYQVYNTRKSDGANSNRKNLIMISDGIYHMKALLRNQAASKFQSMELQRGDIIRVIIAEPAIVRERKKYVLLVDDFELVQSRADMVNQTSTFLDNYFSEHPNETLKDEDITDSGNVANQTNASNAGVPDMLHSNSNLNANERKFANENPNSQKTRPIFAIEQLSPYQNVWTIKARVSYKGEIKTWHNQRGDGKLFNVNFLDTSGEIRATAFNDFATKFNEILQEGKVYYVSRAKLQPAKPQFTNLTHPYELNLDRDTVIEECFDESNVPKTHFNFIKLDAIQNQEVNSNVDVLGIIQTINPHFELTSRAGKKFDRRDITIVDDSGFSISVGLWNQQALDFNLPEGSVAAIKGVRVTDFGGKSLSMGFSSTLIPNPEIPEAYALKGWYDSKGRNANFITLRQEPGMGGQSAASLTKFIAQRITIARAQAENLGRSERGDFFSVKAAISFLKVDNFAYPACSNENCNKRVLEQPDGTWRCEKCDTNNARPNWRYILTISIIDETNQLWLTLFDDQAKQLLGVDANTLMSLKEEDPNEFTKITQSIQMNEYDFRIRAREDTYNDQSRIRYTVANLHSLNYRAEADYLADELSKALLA
UniProt P22336, whole entry K259Q/K427Q/K463Q/K494Q: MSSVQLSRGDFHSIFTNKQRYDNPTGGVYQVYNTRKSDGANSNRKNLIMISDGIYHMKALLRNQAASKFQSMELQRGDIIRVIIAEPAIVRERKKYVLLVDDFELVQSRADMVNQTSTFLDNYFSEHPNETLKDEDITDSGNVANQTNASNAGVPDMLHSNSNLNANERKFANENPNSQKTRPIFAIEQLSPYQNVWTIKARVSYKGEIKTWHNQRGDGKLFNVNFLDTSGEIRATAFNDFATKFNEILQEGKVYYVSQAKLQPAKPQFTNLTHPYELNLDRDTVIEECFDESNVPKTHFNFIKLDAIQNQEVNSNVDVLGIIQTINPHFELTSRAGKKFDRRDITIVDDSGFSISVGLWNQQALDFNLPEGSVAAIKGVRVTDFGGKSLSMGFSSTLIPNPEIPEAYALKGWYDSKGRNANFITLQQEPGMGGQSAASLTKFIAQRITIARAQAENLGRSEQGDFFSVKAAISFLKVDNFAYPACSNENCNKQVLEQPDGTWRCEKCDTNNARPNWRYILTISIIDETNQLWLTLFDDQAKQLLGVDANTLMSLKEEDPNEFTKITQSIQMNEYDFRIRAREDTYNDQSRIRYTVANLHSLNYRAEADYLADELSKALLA

What was measured:
Assay in all cases: pull-down
RPA1 WT (human) = RPA1 WT (human) (UniProt P27694); conditions: human lysate pull-down: 20 mM Tris-HCl pH 8.0, 100 mM NaCl, 1 mM EDTA, 0.5% NP-40, room temp, 30 min; protein in a lysate after overexpression; protein details: FLAG; label: 5'-biotin; single-stranded DNA
[1] = target: Rfa1-4KR (RPA in lysate) K259R,K427R,K463R,K494R (UniProt P22336); conditions: human lysate pull-down: 20 mM Tris-HCl pH 8.0, 100 mM NaCl, 1 mM EDTA, 0.5% NP-40, room temp, 30 min; protein in an extract; label: 5'-biotin; single-stranded DNA
[2] = target: RPA1-3KQ K259Q,K458Q,K489Q (human) (UniProt P27694); conditions: lower and higher concentrations; human lysate pull-down: 20 mM Tris-HCl pH 8.0, 100 mM NaCl, 1 mM EDTA, 0.5% NP-40, room temp, 30 min; protein in a lysate after overexpression; protein details: FLAG; label: 5'-biotin; single-stranded DNA
[3] = target: Rfa1 WT (endogenous RPA in lysate) (UniProt P22336); conditions: human lysate pull-down: 20 mM Tris-HCl pH 8.0, 100 mM NaCl, 1 mM EDTA, 0.5% NP-40, room temp, 30 min; protein in an extract; label: 5'-biotin; single-stranded DNA
[4] = target: Rfa1-4KQ (RPA in lysate) K259Q,K427Q,K463Q,K494Q (UniProt P22336); conditions: more severe than 4KR; human lysate pull-down: 20 mM Tris-HCl pH 8.0, 100 mM NaCl, 1 mM EDTA, 0.5% NP-40, room temp, 30 min; protein in an extract; label: 5'-biotin; single-stranded DNA
[5] = target: RPA1-3KR K259R,K458R,K489R (human) (UniProt P27694); conditions: higher concentration only, no defect at lower; human lysate pull-down: 20 mM Tris-HCl pH 8.0, 100 mM NaCl, 1 mM EDTA, 0.5% NP-40, room temp, 30 min; protein in a lysate after overexpression; protein details: FLAG; label: 5'-biotin; single-stranded DNA

## CGATAAGCTTGATATCGAATTCCTGCAGCC [biotin-ssDNA 30 nt]
RPA1 WT (human)
  binding result: binds
[1]
  binding result: binds more weakly
[2]
  binding result: binds more weakly
[3]
  binding result: binds
[4]
  binding result: binds more weakly
[5]
  binding result: binds more weakly
